Data: PMC4533799
No constants are given. Whether binding was seen depends on the method and setting. Binding can be weak; no strength is given. Each block holds one binder with its values, some of them ahead of it.

Key:
[1] = molecular target: scaffoldin CipC of R. cellulolyticum (R. cellulolyticum (endogenous in R. cellulolyticum H10)); assay: SEC; cellulose-bound proteins of 6-day cultures eluted with distilled water, Superdex 200 10/300 GL in 20 mM Tris-HCl pH 7.8, 150 mM NaCl, 1 mM CaCl2; cellulosomal and free fractions analysed by SDS-PAGE and western blot (anti-His tag, anti-Cel48F, anti-Cel9G)
[2] = molecular target: scaffoldin CipC of R. cellulolyticum (R. cellulolyticum (endogenous in R. cellulolyticum H10)); assay: far-Western, overlay or dot blot; size exclusion fractions boiled, SDS-PAGE, transfer on nitrocellulose, probed with Cel5A labeled with Alexa Fluor 488; only the binder purified

- binding [1]: binds
B1: Cel9G, cellulosomal cellulase of R. cellulolyticum (endogenous) (enzyme, UniProt P37700 36-725)
chain: AGTYNYGEALQKSIMFYEFQRSGDLPADKRDNWRDDSGMKDGSDVGVDLTGGWYDAGDHVKFNLPMSYTSAMLAWSLYEDKDAYDKSGQTKYIMDGIKWANDYFIKCNPTPGVYYYQVGDGGKDHSWWGPAEVMQMERPSFKVDASKPGSAVCASTAASLASAAVVFKSSDPTYAEKCISHAKNLFDMADKAKSDAGYTAASGYYSSSSFYDDLSWAAVWLYLATNDSTYLDKAESYVPNWGKEQQTDIIAYKWGQCWDDVHYGAELLLAKLTNKQLYKDSIEMNLDFWTTGVNGTRVSYTPKGLAWLFQWGSLRHATTQAFLAGVYAEWEGCTPSKVSVYKDFLKSQIDYALGSTGRSFVVGYGVNPPQHPHHRTAHGSWTDQMTSPTYHRHTIYGALVGGPDNADGYTDEINNYVNNEIACDYNAGFTGALAKMYKHSGGDPIPNFKAIEKITNDEVIIKAGLNSTGPNYTEIKAVVYNQTGWPARVTDKISFKYFMDLSEIVAAGIDPLSLVTSSNYSEGKNTKVSGVLPWDVSNNVYYVNVDLTGENIYPGGQSACRREVQFRIAAPQGTTYWNPKNDFSYDGLPTTSTVNTVTNIPVYDNGVKVFGNEPAGGSENPDPEILYGDVNSDKNVDALDFAALKKYLLGGTSSIDVKAADTYKDGNIDAIDMATLKKYLLGTITQLPQG

- binding [2]: binds
B2: fluorescently labeled R. cellulolyticum cellulosomal cellulase Cel5A (enzyme, UniProt P17901 27-475)
chain: YDASLIPNLQIPQKNIPNNDGMNFVKGLRLGWNLGNTFDAFNGTNITNELDYETSWSGIKTTKQMIDAIKQKGFNTVRIPVSWHPHVSGSDYKISDVWMNRVQEVVNYCIDNKMYVILNTHHDVDKVKGYFPSSQYMASSKKYITSVWAQIAARFANYDEHLIFEGMNEPRLVGHANEWWPELTNSDVVDSINCINQLNQDFVNTVRATGGKNASRYLMCPGYVASPDGATNDYFRMPNDISGNNNKIIVSVHAYCPWNFAGLAMADGGTNAWNINDSKDQSEVTWFMDNIYNKYTSRGIPVIIGECGAVDKNNLKTRVEYMSYYVAQAKARGILCILWDNNNFSGTGELFGFFDRRSCQFKFPEIIDGMVKYAFEAKTDPDPVIVYGDYNNDGNVDALDFAGLKKYIMAADHAYVKNLDVNLDNEVNAFDLAILKKYLLGMVSKLPSN
modifications: labeled with Alexa Fluor 488 succinimidyl ester dye

- binding [1]: binds
B3: Cel48F, major cellulosomal cellulase of R. cellulolyticum (endogenous) (enzyme, UniProt P37698 30-722)
chain: ASSPANKVYQDRFESMYSKIKDPANGYFSEQGIPYHSIETLMVEAPDYGHVTTSEAMSYYMWLEAMHGRFSGDFTGFDKSWSVTEQYLIPTEKDQPNTSMSRYDANKPATYAPEFQDPSKYPSPLDTSQPVGRDPINSQLTSAYGTSMLYGMHWILDVDNWYGFGARADGTSKPSYINTFQRGEQESTWETIPQPCWDEHKFGGQYGFLDLFTKDTGTPAKQFKYTNAPDADARAVQATYWADQWAKEQGKSVSTSVGKATKMGDYLRYSFFDKYFRKIGQPSQAGTGYDAAHYLLSWYYAWGGGIDSTWSWIIGSSHNHFGYQNPFAAWVLSTDANFKPKSSNGASDWAKSLDRQLEFYQWLQSAEGAIAGGATNSWNGRYEAVPSGTSTFYGMGYVENPVYADPGSNTWFGMQVWSMQRVAELYYKTGDARAKKLLDKWAKWINGEIKFNADGTFQIPSTIDWEGQPDTWNPTQGYTGNANLHVKVVNYGTDLGCASSLANTLTYYAAKSGDETSRQNAQKLLDAMWNNYSDSKGISTVEQRGDYHRFLDQEVFVPAGWTGKMPNGDVIKSGVKFIDIRSKYKQDPEWQTMVAALQAGQVPTQRLHRFWAQSEFAVANGVYAILFPDQGPEKLLGDVNGDETVDAIDLAILKKYLLNSSTTINTANADMNSDNAIDAIDYALLKKALLSIQ
